# According to publication PMC11224471:
# Amino acid sequences for entries named in this document (tags omitted).
# UniProt Q9ESE1: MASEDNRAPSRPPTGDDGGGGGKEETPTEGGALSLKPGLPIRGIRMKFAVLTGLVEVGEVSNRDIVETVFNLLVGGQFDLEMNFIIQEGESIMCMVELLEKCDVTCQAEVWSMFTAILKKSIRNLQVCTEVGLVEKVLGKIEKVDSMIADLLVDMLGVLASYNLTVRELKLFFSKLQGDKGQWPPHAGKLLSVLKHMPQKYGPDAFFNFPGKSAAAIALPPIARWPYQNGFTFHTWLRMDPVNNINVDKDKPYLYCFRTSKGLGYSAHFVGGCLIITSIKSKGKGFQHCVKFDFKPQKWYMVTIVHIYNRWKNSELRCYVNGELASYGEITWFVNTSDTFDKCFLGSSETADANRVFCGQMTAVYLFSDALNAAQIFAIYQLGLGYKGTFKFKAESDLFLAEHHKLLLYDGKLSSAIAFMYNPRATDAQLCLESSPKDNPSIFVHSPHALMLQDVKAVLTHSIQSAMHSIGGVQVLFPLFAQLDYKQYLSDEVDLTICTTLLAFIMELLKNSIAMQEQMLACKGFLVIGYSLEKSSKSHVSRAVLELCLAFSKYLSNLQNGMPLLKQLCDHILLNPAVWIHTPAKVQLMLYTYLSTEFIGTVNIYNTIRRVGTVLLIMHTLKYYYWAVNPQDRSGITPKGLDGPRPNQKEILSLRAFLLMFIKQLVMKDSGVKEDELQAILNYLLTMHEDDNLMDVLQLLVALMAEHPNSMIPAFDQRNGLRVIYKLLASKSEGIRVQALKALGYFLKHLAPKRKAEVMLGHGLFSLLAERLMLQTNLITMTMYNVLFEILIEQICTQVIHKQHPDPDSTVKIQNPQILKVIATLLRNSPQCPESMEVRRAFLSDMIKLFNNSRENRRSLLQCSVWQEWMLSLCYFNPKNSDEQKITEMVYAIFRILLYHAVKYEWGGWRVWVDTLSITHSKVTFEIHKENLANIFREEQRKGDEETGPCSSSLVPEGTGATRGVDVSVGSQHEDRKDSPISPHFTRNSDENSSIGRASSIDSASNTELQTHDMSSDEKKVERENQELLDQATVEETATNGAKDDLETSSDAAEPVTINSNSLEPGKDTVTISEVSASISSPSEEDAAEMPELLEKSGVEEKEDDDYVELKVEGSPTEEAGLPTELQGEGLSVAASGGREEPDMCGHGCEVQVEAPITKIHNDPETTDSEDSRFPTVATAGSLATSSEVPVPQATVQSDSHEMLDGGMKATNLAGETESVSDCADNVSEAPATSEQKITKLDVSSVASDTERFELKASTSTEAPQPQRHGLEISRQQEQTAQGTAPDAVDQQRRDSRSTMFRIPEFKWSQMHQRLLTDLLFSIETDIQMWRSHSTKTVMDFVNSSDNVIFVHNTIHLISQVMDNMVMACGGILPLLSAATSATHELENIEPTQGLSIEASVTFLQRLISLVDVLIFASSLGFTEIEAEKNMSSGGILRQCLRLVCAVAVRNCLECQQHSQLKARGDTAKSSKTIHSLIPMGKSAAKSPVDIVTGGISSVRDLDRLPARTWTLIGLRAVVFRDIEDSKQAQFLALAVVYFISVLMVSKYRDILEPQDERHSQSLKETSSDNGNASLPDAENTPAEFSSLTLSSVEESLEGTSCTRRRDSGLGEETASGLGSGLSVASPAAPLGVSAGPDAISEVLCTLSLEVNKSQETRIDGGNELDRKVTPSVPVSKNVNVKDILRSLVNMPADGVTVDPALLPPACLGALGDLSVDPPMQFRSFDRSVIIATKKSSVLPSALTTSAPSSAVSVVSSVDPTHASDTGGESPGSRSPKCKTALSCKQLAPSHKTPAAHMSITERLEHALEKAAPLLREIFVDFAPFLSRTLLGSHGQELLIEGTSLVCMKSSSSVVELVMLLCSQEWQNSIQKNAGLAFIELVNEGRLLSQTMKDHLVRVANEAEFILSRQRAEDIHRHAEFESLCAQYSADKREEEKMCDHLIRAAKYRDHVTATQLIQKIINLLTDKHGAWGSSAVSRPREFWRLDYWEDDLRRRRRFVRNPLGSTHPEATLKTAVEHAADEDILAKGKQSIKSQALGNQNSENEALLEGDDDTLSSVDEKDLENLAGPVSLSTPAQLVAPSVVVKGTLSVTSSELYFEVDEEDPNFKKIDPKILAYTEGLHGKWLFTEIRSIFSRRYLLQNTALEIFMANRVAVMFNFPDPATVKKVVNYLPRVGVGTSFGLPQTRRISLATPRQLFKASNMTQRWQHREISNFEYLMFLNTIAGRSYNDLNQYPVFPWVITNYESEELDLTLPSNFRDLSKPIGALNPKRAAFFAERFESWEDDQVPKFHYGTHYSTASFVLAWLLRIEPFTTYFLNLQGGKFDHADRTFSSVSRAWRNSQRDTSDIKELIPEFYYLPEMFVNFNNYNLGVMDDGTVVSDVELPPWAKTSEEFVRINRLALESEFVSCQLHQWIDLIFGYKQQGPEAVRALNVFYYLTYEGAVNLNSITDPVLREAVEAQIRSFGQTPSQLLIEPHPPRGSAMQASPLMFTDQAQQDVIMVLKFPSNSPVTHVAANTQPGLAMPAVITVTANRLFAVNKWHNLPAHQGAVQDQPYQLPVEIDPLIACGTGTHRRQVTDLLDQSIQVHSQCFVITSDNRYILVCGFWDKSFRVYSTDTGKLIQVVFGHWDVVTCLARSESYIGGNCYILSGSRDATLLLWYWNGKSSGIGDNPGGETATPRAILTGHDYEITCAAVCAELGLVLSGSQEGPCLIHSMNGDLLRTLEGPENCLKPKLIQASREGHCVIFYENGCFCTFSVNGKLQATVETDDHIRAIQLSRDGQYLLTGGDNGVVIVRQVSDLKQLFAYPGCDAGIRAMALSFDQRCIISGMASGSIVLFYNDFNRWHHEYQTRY
# No constants are given. Whether binding was seen depends on the method and setting. In cells and extracts the contact can be indirect. Some binding calls cover weakened binding; strength is not graded here.
# Target: T1, TGFβ receptor II subunit (TGFβRII), murine (mouse (endogenous in splenic B cells)) (UniProt Q62312)
# T1 sequence: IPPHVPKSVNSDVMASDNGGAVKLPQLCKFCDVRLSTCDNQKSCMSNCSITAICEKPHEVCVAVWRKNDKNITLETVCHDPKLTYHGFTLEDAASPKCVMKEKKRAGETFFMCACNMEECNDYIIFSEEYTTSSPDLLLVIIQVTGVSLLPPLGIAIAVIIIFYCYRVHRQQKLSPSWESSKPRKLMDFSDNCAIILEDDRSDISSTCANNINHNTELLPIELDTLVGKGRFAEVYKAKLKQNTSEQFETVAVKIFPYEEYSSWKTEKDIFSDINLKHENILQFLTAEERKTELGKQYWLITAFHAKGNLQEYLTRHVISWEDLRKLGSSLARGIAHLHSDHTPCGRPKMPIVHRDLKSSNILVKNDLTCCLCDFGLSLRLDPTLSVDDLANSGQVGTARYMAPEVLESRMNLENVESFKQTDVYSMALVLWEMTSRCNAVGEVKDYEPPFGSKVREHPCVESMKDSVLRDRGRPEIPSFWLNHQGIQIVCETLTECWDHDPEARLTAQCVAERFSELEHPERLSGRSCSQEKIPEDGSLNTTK
# Assay: co-IP; endogenous proteins from B cells of Lrba+/+ mice; immunoprecipitation with anti-Lrba or anti-TGFβRII, detection by immunoblot; Lrba-/- B cells as negative control
substance,measurement,value
"Lipopolysaccharide (LPS)-responsive beige-like anchor (Lrba), murine (from UniProt Q9ESE1 1-2856)",binding,binds weakly
